# Assay results taken from the supplement of paper PMC10849652.
# By UniProt entry, the sequences of proteins in these tests, tags left out. Where a name states a change or a piece, a line headed by the entry shows the natural chain unless it says otherwise.
# UniProt Q8TAA9: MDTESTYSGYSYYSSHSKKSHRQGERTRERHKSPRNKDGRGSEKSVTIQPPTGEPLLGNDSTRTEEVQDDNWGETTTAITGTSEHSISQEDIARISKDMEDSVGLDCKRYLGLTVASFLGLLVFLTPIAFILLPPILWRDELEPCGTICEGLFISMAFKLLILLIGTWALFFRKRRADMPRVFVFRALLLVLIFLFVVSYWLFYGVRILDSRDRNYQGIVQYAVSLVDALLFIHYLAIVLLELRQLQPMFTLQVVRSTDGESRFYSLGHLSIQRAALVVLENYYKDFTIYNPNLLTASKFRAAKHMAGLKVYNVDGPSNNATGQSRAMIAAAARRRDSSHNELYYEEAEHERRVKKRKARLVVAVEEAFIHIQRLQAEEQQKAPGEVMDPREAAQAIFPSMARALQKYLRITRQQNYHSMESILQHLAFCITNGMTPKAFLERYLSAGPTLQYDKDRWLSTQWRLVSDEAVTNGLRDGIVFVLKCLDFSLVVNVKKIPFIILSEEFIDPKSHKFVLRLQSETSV
# UniProt Q9NQZ2: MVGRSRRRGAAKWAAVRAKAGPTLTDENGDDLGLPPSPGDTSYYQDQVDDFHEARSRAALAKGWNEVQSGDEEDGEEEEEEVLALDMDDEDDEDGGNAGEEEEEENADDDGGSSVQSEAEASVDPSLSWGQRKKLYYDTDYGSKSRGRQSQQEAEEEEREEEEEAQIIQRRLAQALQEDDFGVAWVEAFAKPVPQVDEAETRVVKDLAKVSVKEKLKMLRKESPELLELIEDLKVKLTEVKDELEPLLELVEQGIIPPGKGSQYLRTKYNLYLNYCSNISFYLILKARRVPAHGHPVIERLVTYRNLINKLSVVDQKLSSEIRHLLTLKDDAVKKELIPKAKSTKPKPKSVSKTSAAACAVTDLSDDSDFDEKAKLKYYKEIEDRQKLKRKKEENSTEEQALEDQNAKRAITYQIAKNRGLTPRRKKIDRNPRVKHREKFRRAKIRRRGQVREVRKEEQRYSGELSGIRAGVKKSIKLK
# UniProt Q8NFA0: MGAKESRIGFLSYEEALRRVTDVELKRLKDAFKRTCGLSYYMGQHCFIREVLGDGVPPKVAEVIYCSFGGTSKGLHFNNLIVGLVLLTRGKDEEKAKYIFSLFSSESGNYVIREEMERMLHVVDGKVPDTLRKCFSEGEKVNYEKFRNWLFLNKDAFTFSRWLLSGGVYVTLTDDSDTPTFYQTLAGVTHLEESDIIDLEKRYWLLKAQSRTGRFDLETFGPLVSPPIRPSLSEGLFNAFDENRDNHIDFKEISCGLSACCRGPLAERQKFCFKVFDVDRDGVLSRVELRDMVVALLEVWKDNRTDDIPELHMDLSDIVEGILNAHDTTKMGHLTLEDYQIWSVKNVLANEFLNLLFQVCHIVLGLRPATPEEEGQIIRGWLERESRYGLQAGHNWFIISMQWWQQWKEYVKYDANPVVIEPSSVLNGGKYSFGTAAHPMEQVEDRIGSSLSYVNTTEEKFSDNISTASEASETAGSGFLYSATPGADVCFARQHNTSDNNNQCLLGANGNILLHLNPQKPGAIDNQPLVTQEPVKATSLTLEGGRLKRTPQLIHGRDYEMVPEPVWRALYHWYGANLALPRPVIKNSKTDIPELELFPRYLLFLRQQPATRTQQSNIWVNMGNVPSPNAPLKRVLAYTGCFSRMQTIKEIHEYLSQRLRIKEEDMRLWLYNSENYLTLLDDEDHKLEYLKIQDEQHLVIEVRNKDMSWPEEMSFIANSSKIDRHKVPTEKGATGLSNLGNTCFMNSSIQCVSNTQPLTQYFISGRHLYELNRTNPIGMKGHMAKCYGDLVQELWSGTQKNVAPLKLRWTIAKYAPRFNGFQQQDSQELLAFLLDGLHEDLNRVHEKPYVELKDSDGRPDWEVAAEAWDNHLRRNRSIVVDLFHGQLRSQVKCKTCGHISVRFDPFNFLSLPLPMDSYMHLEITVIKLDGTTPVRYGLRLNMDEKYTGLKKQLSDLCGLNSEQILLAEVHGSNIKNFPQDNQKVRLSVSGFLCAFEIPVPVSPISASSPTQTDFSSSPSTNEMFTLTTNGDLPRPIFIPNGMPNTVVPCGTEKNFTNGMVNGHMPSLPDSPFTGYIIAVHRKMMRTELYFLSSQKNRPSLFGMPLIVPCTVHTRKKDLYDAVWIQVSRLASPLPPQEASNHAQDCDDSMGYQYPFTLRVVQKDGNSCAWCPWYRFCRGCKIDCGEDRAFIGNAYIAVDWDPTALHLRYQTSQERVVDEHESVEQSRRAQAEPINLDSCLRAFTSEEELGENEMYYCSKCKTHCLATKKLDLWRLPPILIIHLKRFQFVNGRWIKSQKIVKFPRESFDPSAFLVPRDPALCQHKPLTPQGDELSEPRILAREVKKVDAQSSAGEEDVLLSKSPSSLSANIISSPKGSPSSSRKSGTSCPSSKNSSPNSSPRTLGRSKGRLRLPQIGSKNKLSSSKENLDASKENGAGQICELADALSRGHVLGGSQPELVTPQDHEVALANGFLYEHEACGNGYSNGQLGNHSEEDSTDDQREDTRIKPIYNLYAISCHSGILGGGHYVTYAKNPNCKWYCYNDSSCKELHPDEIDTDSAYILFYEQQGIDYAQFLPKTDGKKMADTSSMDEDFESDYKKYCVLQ
# UniProt Q969X6: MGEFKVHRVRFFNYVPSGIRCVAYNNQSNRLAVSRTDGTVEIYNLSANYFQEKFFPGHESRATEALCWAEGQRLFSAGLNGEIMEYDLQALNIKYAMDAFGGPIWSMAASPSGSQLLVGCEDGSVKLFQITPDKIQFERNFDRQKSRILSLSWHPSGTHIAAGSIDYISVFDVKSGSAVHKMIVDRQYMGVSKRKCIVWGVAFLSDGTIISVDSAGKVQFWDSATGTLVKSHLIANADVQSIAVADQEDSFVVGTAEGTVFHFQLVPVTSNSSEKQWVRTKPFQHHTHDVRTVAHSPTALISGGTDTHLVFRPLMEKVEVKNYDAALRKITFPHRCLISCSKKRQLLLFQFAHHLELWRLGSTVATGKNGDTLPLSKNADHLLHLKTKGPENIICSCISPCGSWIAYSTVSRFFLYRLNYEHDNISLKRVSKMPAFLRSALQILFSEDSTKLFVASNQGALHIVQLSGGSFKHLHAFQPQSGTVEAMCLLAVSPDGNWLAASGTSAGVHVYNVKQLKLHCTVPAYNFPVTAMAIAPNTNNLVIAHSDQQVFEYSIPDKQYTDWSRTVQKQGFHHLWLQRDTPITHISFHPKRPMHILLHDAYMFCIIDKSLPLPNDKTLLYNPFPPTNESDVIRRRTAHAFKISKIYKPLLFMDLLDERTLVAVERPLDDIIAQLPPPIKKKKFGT
# UniProt Q9NUQ7: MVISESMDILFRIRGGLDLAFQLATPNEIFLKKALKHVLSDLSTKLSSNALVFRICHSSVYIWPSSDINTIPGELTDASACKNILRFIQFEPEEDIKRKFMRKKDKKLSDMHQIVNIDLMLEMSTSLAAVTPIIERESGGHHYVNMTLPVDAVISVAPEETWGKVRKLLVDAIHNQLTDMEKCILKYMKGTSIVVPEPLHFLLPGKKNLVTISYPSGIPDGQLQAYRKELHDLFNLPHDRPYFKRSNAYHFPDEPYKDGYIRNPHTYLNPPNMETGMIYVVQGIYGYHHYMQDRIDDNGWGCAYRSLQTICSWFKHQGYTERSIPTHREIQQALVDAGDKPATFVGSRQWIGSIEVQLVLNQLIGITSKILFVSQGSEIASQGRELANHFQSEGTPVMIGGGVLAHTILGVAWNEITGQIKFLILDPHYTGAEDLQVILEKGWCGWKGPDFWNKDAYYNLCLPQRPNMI
# UniProt Q9NYU2: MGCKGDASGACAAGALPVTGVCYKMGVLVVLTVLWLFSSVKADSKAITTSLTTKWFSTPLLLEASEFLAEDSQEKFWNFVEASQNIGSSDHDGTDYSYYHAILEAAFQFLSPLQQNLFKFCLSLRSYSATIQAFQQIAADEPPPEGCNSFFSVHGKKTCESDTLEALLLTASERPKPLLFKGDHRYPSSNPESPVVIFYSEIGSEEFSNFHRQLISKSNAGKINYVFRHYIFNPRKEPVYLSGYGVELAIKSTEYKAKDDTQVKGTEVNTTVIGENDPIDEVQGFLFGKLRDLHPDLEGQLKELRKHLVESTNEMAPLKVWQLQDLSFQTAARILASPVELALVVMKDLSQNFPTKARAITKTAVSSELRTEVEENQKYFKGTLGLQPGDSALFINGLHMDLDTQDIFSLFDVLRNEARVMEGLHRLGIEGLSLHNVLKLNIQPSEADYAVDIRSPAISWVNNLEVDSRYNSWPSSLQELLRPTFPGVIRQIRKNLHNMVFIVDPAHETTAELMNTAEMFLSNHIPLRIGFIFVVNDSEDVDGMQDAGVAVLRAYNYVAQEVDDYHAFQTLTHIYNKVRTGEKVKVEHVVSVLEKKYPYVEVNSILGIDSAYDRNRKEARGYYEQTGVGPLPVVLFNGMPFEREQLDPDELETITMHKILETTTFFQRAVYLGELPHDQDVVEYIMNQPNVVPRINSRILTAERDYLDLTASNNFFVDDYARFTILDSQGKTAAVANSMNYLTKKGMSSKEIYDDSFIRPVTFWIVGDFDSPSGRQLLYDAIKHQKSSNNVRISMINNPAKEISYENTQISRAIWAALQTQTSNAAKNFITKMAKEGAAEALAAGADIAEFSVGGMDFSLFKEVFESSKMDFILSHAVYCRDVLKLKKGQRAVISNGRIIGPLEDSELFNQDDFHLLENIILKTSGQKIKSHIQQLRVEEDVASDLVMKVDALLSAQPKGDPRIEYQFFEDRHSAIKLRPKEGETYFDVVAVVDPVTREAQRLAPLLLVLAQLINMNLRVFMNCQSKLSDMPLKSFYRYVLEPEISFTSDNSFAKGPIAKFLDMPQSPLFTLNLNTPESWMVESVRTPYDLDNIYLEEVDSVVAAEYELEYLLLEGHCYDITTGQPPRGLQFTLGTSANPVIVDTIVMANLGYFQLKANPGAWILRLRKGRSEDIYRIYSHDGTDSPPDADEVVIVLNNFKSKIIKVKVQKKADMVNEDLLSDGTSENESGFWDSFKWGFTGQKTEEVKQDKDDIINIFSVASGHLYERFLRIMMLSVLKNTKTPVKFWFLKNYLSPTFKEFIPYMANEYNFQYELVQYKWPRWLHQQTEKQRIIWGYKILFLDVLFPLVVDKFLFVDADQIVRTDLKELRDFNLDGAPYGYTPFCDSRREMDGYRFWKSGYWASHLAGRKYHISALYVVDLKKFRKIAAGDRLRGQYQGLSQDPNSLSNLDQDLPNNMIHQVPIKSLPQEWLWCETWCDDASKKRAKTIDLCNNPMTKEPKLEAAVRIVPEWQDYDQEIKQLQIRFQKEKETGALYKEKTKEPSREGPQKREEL
# UniProt Q9BZI7: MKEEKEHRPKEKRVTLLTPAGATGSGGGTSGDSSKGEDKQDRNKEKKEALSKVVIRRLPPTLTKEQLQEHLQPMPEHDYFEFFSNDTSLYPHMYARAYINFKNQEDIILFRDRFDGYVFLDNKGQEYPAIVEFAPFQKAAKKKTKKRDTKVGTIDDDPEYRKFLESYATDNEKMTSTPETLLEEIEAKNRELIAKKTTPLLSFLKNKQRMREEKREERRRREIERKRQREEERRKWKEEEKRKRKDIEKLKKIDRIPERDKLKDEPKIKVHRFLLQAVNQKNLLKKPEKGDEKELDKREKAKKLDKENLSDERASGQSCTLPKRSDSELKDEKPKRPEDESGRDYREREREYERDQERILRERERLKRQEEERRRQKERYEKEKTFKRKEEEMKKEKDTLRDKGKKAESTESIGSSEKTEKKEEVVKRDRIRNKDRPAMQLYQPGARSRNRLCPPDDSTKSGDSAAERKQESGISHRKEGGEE
# UniProt Q9NYH9: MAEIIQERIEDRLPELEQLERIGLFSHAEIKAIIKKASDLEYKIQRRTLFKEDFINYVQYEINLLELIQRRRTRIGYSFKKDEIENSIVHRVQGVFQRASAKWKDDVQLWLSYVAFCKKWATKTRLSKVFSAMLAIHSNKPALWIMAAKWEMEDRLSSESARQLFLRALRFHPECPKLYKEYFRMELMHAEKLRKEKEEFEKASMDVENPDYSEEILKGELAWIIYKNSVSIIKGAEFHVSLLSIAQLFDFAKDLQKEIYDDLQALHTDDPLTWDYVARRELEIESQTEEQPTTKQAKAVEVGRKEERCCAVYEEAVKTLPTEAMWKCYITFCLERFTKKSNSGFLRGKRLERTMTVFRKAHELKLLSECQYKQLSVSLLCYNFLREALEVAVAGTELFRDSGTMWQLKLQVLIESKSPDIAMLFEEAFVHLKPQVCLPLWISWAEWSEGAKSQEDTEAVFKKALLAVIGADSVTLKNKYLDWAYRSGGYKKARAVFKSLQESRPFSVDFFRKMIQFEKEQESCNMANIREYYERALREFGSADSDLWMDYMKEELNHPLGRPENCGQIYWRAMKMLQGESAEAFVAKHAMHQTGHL
# The list shows a part of the results.
# Experiments:
# Assay in all cases: log2 fold change, soluble protein after heating vs DMSO (PISA); higher = thermal stabilisation; K562 lysate, 10 uM; active = over 0.2 and 3.5 SD of the protein, either way, in both replicates (recomputed)
# nilotinib = compound: Cc1cn(-c2cc(NC(=O)c3ccc(C)c(Nc4nccc(-c5cccnc5)n4)c3)cc(C(F)(F)F)c2)cn1 [nilotinib]
# Summary of the method: (§1)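 To prepare the extract, K562 pellets were dounce-homogenised in PBS pH 7.4 with 1 mM MgCl2, giving crude material at 1 mg/mL protein. This was treated with 10 μM compound for 30 min, then heated in aliquots for 3 min over 48°C-58°C before pooling and addition of NP-40 to 0.5% at 4°C. Centrifugation at 21,000xg for 90 min left soluble protein in the supernatant, which TMTpro 16plex LC-MS/MS quantified with equalised channel sums. Results are log-two fold changes in thermal stability compared with solvent controls, from duplicates.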
# [1] = compound: Cc1nc(Nc2n[nH]c3c2CN(C(=O)N[C@H](CN(C)C)c2ccccc2)C3(C)C)c2sccc2n1
# Summary of the method: as §1
# dasatinib = compound: Cc1nc(Nc2ncc(C(=O)Nc3c(C)cccc3Cl)s2)cc(N2CCN(CCO)CC2)n1 [dasatinib]
# Summary of the method: as §1
# [2] = compound: Cc1ncc(-c2ccnc(Nc3ccc(S(C)(=O)=O)cc3)n2)n1C(C)C
# Summary of the method: as §1
# [3] = compound: Cn1cc(-c2ccc3c(c2)CCN3C(=O)Cc2cccc(C(F)(F)F)c2)c2c(N)ncnc21
# Summary of the method: as §1
# quisinostat = compound: Cn1cc(CNCC2CCN(c3ncc(C(=O)NO)cn3)CC2)c2ccccc21 [quisinostat]
# Summary of the method: as §1
# tipifarnib = compound: Cn1cncc1[C@@](N)(c1ccc(Cl)cc1)c1ccc2c(c1)c(-c1cccc(Cl)c1)cc(=O)n2C [tipifarnib]
# Summary of the method: as §1
# [4] = compound: NC(=O)Nc1cc(-c2cccc(F)c2)sc1C(=O)N[C@H]1CCCNC1
# Summary of the method: as §1
# [5] = compound: NC(=O)c1cnc(N[C@@H]2CCCC[C@@H]2N)nc1Nc1cccc(-n2nccn2)c1
# Summary of the method: as §1
# [6] = compound: NC1(c2ccc(-c3nc4ccn5c(=O)[nH]nc5c4cc3-c3ccccc3)cc2)CCC1
# Summary of the method: as §1
# [7] = compound: NCC(=O)Nc1ccc(-n2nc(C(F)(F)F)cc2-c2ccc3c(ccc4ccccc43)c2)cc1
# Summary of the method: as §1
# vorinostat = compound: O=C(CCCCCCC(=O)Nc1ccccc1)NO [vorinostat]
# Summary of the method: as §1
# silmitasertib = compound: O=C(O)c1ccc2c(c1)nc(Nc1cccc(Cl)c1)c1ccncc12 [silmitasertib]
# Summary of the method: as §1
# [8] = compound: O=C1NC(=O)C(c2cnc3ccccn23)=C1c1cn2c3c(cc(F)cc13)CN(C(=O)N1CCCCC1)CC2
# Summary of the method: as §1
# entospletinib = compound: c1cn2cc(-c3ccc4cn[nH]c4c3)nc(Nc3ccc(N4CCOCC4)cc3)c2n1 [entospletinib]
# Summary of the method: as §1
Target,log2 fold change (nilotinib),log2 fold change [1],log2 fold change (dasatinib),log2 fold change [2],log2 fold change [3],log2 fold change (quisinostat),log2 fold change (tipifarnib),log2 fold change [4],log2 fold change [5],log2 fold change [6],log2 fold change [7],log2 fold change (vorinostat),log2 fold change (silmitasertib),log2 fold change [8],log2 fold change (entospletinib)
USP3 (UniProt Q9Y6I4),inactive: 0.045,inactive: -0.015,inactive: -0.028,inactive: 0.028,inactive: 0.008,inactive: -0.01,inactive: -0.054,inactive: 0.107,inactive: -0.005,inactive: -0.042,inactive: 0.015,active: -0.469,inactive: -0.026,inactive: 0.015,inactive: -0.013
VANGL1 (UniProt Q8TAA9),inactive: -0.086,inactive: -0.067,inactive: -0.019,inactive: 0.079,inactive: -0.036,inactive: 0.014,inactive: 0.042,inactive: 0.009,inactive: 0.121,inactive: 0.034,inactive: -0.04,inactive: 0.085,inactive: 0.159,inactive: -0.031,inactive: -0.009
UQCRC2 (UniProt P22695),inactive: 0.034,inactive: -0.028,inactive: 0,inactive: 0.004,inactive: -0.043,inactive: 0.007,inactive: -0.011,inactive: 0.02,inactive: -0.008,inactive: 0.011,inactive: 0.01,inactive: 0.123,inactive: -0.013,inactive: 0.03,inactive: 0.007
UTP3 (UniProt Q9NQZ2),inactive: -0.106,inactive: 0.008,inactive: -0.048,inactive: -0.054,inactive: -0.023,inactive: 0.014,inactive: 0.051,inactive: 0.065,inactive: 0.002,inactive: 0,active: 0.307,inactive: 0.143,inactive: 0.022,inactive: -0.039,inactive: 0.02
USP32 (UniProt Q8NFA0),inactive: 0.024,inactive: -0.021,inactive: 0.016,inactive: -0.011,inactive: 0.014,inactive: -0.078,inactive: -0.045,inactive: 0.07,inactive: -0.005,inactive: -0.069,inactive: 0.034,inactive: -0.043,inactive: -0.027,inactive: 0.016,inactive: -0.029
UTP4 (UniProt Q969X6),inactive: 0.006,inactive: -0.08,inactive: -0.016,inactive: -0.04,inactive: -0.003,inactive: 0.013,inactive: 0.045,inactive: 0.048,inactive: -0.018,inactive: -0.009,inactive: -0.022,inactive: 0.037,inactive: 0.015,inactive: -0.039,inactive: -0.058
UFSP2 (UniProt Q9NUQ7),inactive: -0.004,inactive: -0.015,inactive: 0.007,inactive: -0.038,inactive: -0.002,inactive: 0.004,inactive: -0.001,inactive: 0.016,inactive: 0.002,inactive: -0.035,inactive: -0.029,active: 0.342,inactive: 0.001,inactive: -0.021,inactive: -0.012
UNC93B1 (UniProt Q9H1C4),inactive: 0.022,inactive: 0.046,inactive: 0.059,inactive: -0.127,inactive: -0.052,inactive: 0,inactive: 0.151,inactive: 0.023,inactive: 0.166,inactive: 0.04,inactive: -0.137,inactive: 0.114,inactive: 0.143,inactive: 0.082,inactive: -0.258
UFD1 isoform 1 (UniProt Q92890),inactive: 0.042,inactive: -0.019,inactive: 0.017,inactive: -0.013,inactive: 0.025,inactive: 0.032,inactive: -0.013,inactive: -0.022,inactive: -0.008,inactive: -0.036,inactive: -0.004,inactive: 0.042,inactive: -0.001,inactive: -0.013,inactive: -0.016
UHRF1BP1L (UniProt A0JNW5),inactive: 0.015,inactive: -0.043,inactive: 0.006,inactive: 0.039,inactive: 0.004,inactive: -0.037,inactive: -0.027,inactive: -0.001,inactive: 0.003,inactive: 0.003,inactive: 0.049,inactive: 0.019,inactive: -0.042,inactive: -0.024,inactive: 0
USP16 (UniProt Q9Y5T5),inactive: 0.016,inactive: 0.005,inactive: 0.053,inactive: 0.014,inactive: 0.041,inactive: -0.014,inactive: 0.016,inactive: 0.011,inactive: 0.023,inactive: 0.012,inactive: 0.019,active: -0.272,inactive: 0.012,inactive: -0.019,inactive: -0.031
UGGT1 (UniProt Q9NYU2),inactive: 0.051,inactive: -0.014,inactive: 0.006,inactive: 0.015,inactive: -0.001,inactive: -0.005,inactive: -0.02,inactive: -0.006,inactive: 0.003,inactive: -0.002,inactive: 0.008,inactive: 0.112,inactive: -0.008,inactive: -0.004,inactive: 0.008
UPF3B (UniProt Q9BZI7),inactive: -0.016,inactive: 0.012,inactive: 0.004,inactive: 0.014,inactive: 0.005,inactive: -0.013,inactive: 0.014,inactive: 0.022,inactive: -0.025,inactive: -0.003,inactive: 0.022,inactive: 0.075,inactive: -0.02,inactive: -0.043,inactive: -0.049
VAPA isoform 2 (UniProt Q9P0L0),inactive: 0.041,inactive: -0.015,inactive: 0.015,inactive: -0.002,inactive: -0.027,inactive: -0.045,inactive: 0.008,inactive: -0.05,inactive: 0.021,inactive: 0.006,inactive: 0.013,inactive: 0.029,inactive: 0.024,inactive: -0.031,inactive: -0.031
UTP6 (UniProt Q9NYH9),inactive: 0.006,inactive: 0.032,inactive: 0.106,inactive: 0.045,inactive: -0.004,inactive: -0.113,inactive: 0.005,inactive: 0.051,inactive: 0.143,inactive: 0.151,inactive: 0.013,inactive: -0.296,inactive: -0.035,inactive: 0.022,inactive: 0.007
UTP15 (UniProt Q8TED0),inactive: 0.001,inactive: 0.002,inactive: 0,inactive: -0.024,inactive: -0.027,inactive: 0.007,inactive: 0.003,inactive: -0.011,inactive: -0.044,inactive: 0.076,inactive: -0.006,inactive: 0.008,inactive: -0.002,inactive: 0.014,inactive: 0.028
VARS (UniProt P26640),inactive: -0.012,inactive: -0.004,inactive: -0.072,inactive: 0,inactive: 0.06,inactive: -0.021,inactive: 0.012,inactive: 0.045,inactive: 0.001,inactive: -0.028,inactive: 0.006,active: -0.275,inactive: 0.063,inactive: 0.022,inactive: 0.024
UTP18 (UniProt Q9Y5J1),inactive: 0.059,inactive: -0.009,inactive: 0.005,inactive: -0.179,inactive: -0.03,inactive: -0.034,inactive: -0.002,inactive: 0.058,inactive: -0.016,inactive: 0.074,inactive: 0.045,inactive: -0.078,inactive: -0.014,inactive: 0.029,inactive: -0.136
UGP2 (UniProt Q16851),inactive: 0.008,inactive: -0.01,inactive: -0.015,inactive: -0.009,inactive: 0.001,inactive: 0.024,inactive: 0.012,inactive: -0.001,inactive: 0.003,inactive: -0.003,inactive: 0.012,inactive: 0.075,inactive: -0.008,inactive: -0.002,inactive: 0.009

# No new results follow: an excerpt of the list.
Target,log2 fold change (nilotinib),log2 fold change [1],log2 fold change (dasatinib),log2 fold change [2],log2 fold change [3],log2 fold change (quisinostat),log2 fold change (tipifarnib),log2 fold change [4],log2 fold change [5],log2 fold change [6],log2 fold change [7],log2 fold change (vorinostat),log2 fold change (silmitasertib),log2 fold change [8],log2 fold change (entospletinib)
UTP3 (UniProt Q9NQZ2),inactive: -0.106,inactive: 0.008,inactive: -0.048,inactive: -0.054,inactive: -0.023,inactive: 0.014,inactive: 0.051,inactive: 0.065,inactive: 0.002,inactive: 0,active: 0.307,inactive: 0.143,inactive: 0.022,inactive: -0.039,inactive: 0.02
USP32 (UniProt Q8NFA0),inactive: 0.024,inactive: -0.021,inactive: 0.016,inactive: -0.011,inactive: 0.014,inactive: -0.078,inactive: -0.045,inactive: 0.07,inactive: -0.005,inactive: -0.069,inactive: 0.034,inactive: -0.043,inactive: -0.027,inactive: 0.016,inactive: -0.029
UTP4 (UniProt Q969X6),inactive: 0.006,inactive: -0.08,inactive: -0.016,inactive: -0.04,inactive: -0.003,inactive: 0.013,inactive: 0.045,inactive: 0.048,inactive: -0.018,inactive: -0.009,inactive: -0.022,inactive: 0.037,inactive: 0.015,inactive: -0.039,inactive: -0.058
